In article doi:10.1101/2023.09.08.556844:
These are yes or no findings as the source states them, for the method shown. In cells and extracts the contact can be indirect. A result given as binding can be weak or reduced; the word gives no strength.

Molecular target: HA-HuRΔB (hinge region deleted mutant of HuR) (human)
Assay: co-IP

B1: Syntaxin 5, endogenous in C6 cells (protein, UniProt Q08851 1-355)
chain: MIPRKRYGSKNTDQGVYLGLSKTQVLSPATAINSSSDIAPLPTPVALVPSPPDTMSCRDRTQEFLSACKSLQSRQNGIQTNKPALHATRQCSEFTLMARRIGKDLSNTFAKLEKLTILAKRKSLFDDKAVEIEELTYIIKQDINSLNKQIAQLQDFVRAKGSQSGRHLQTHSNTIVVSLQSKLASMSNDFKSVLEVRTENLKQQRNRREQFSRAPVSALPLAPNNLGGGPIVLGGESRASRDVAIDMMDPRTSQQLQLIDEQDSYIQSRADTMQNIESTIVELGSIFQQLAHMVKEQEETIQRIDENVLGAQLDVEAAHSEILKYFQSVTSNRWLMVKIFLILIVFFIIFVVFLA
binding: binds
